Step yield data for five substances are collected here from patent publication US9309278 (dated 2016).

*: point of attachment. Biotin = O=C1N[C@H]2[C@H](CS[C@H]2CCCCC(=O)*)N1

The nature of this data set: general procedure: Fmoc solid-phase peptide synthesis; Rink-amide 4-methylbenzhydrylamine (MBHA) resin. Particulars: late stage modification step.
In turn, Ac-FQPKCG-NH2 gave a step yield of over 95%.

“Biotin-GCGGCGLGCGGACR-NH2 (cysteine pairing not given here)”: the step yield is 95%.

Biotin-GKGGACRHRKVLRDN-NH2 gave a step yield of over 95%.

For the substance H-VGCAEKSL-NH2, the step yield was over 95%.

For H-WACYKSL-NH2, the step yield is reported as 95%.
